The target of assay [1] is T1, Scs2-Msp (1-128), N-His (Saccharomyces cerevisiae) (UniProt P40075).
T1 sequence (chain, RED-tris-NTA fluorescent dye label (MST); 15N-labeled (NMR)): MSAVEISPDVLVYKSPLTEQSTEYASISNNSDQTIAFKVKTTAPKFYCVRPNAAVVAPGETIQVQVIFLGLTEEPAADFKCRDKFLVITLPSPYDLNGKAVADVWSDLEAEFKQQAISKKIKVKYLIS
Nature of the assay: NMR titration; 1H-15N HSQC of 0.5 mM 15N-labeled Scs2-Msp (1-128) without and with unlabeled partner at molar ratios 1:5 and 1:10; 800 MHz, 303 K; both purified.

The target of assay [2] is T1, Scs2-Msp (1-128), N-His (Saccharomyces cerevisiae). Nature of the assay: MST; Monolith NT.115; RED-tris-NTA labeled N-His Scs2-Msp (100 nM) with a serial dilution of Epo1, Bem3 or EB complex from 2 mM; 20 mM Tris-HCl pH 8.0, 150 mM NaCl, 4 mM MgCl2, 0.05% Tween 20; both purified.

No constants are given. Whether binding was seen depends on the method and setting. Where a sequence is shown, tags or fusion partners need not be part of it.

B1: Bem3^CC1 (1-99) with 6xHis tag, isolated protein (domain or fragment, Saccharomyces cerevisiae, UniProt P32873 1-99, looked up)
chain: MTDNLTTTHGGSTTLELLAQYNDHRSKKDKSIEHIEKGTCSGKERNPSYDEIFTENIKLKLQVQEYETEIESLEKVIDMLQKNREASLEVVLEQVQNDS
notes: Bem3, Saccharomyces cerevisiae, residues 1-99 (CC1 domain); Dimer in solution by MALS; theoretical molecular mass printed as 11.39 kDa; also called N-His-unlabeled Bem3^CC1; wild-type (wt) Bem3^CC1; source: pET-22b construct, purified (Hitrap Q ion-exchange); not shown: 6xHis, N-terminal, kept
B1: the binding entry in assay [1] was “no binding (tested: molar ratio of 1:10 to 0.5 mM Scs2-Msp)”; in assay [2] it was “no binding (tested: 2 mM)”.
